Values from PubChem BioAssay AID686938 (Drosophila RNAi Screening Center, 2013)

Assay: 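Knock-downs reducing store-operated calcium influx in Drosophila cells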 (primary screen)
Cells: Drosophila S2R+ cells
Reagent: long dsRNA against Drosophila genes, about 0.25 µg dsRNA per well, roughly 10,000 cells
Time to read-out: 5 days of knock-down before the calcium assay
Conditions: thapsigargin (SERCA pump blocker) to empty calcium stores; entry signal taken 4 min after adding it
Read-out: 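Per-well fluo-4 fluorescence in two replicates, unnormalised, measured in resting cells and 4 min after store depletion by the SERCA blocker thapsigargin; ratio of the two present in few wells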
Scale: calcium entry signal: higher = stronger calcium signal after store depletion; resting calcium signal: higher = higher resting calcium signal
Units: calcium entry signal in fluorescence units; resting calcium signal in fluorescence units
Active means: 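Called when the plate z-score of the entry-to-rest ratio, mean of duplicates, falls below −3; wells with low overall dye signal (Fmax z below −2) or more than five off-targets excluded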
Meaning of the calls: active = strongly reduced calcium entry; inactive = no strong reduction
The deposit covers about 23,000 reagents; shown is an unselected part of those with a known target gene and a result. Of all reagents, 75 (0.33%) were called active. 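Raw plate signals without normalisation; calls rest on plate z-scores that were not deposited; ratio present for only 364 wells.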 Names joined by + are all predicted targets of the reagent. The record does not give: the dose of the treatment.

Ir56a [DRSC05776]
- calcium entry signal, replicate 1: 3.55e7
- calcium entry signal, replicate 2: 3.63e7
- resting calcium signal, replicate 1: 1.72e7
- resting calcium signal, replicate 2: 1.97e7
- activity call: inactive

CG15824 [DRSC00473]
- calcium entry signal, replicate 1: 2.94e7
- calcium entry signal, replicate 2: 3.19e7
- resting calcium signal, replicate 1: 1.44e7
- resting calcium signal, replicate 2: 1.41e7
- activity call: inactive

CG31013 [DRSC16542]
- calcium entry signal, replicate 1: 3.92e7
- calcium entry signal, replicate 2: 4.71e7
- resting calcium signal, replicate 1: 1.99e7
- resting calcium signal, replicate 2: 1.96e7
- activity call: inactive

CG10376 [DRSC02049]
- calcium entry signal, replicate 1: 4.06e7
- resting calcium signal, replicate 1: 1.95e7
- activity call: inactive

CG15152 [DRSC02453]
- calcium entry signal, replicate 1: 4.33e7
- calcium entry signal, replicate 2: 3.35e7
- resting calcium signal, replicate 1: 2.00e7
- resting calcium signal, replicate 2: 1.68e7
- activity call: inactive

CG18577 [DRSC15352]
- calcium entry signal, replicate 1: 2.03e7
- calcium entry signal, replicate 2: 2.26e7
- resting calcium signal, replicate 1: 1.17e7
- resting calcium signal, replicate 2: 1.15e7
- activity call: inactive

Shrm [DRSC06437]
- calcium entry signal, replicate 1: 2.35e7
- calcium entry signal, replicate 2: 3.03e7
- resting calcium signal, replicate 1: 1.24e7
- resting calcium signal, replicate 2: 1.34e7
- activity call: inactive

Shrm [DRSC06438]
- calcium entry signal, replicate 1: 2.10e7
- calcium entry signal, replicate 2: 2.58e7
- resting calcium signal, replicate 1: 1.08e7
- resting calcium signal, replicate 2: 1.23e7
- activity call: inactive

Shrm [DRSC07221]
- calcium entry signal, replicate 1: 4.18e7
- calcium entry signal, replicate 2: 4.71e7
- resting calcium signal, replicate 1: 1.75e7
- resting calcium signal, replicate 2: 2.10e7
- activity call: inactive

Shrm [DRSC23067]
- calcium entry signal, replicate 1: 5.77e7
- calcium entry signal, replicate 2: 3.41e7
- resting calcium signal, replicate 1: 2.71e7
- resting calcium signal, replicate 2: 1.31e7
- activity call: inactive

CG5065 [DRSC06912]
- calcium entry signal, replicate 1: 5.63e7
- calcium entry signal, replicate 2: 6.08e7
- resting calcium signal, replicate 1: 2.43e7
- resting calcium signal, replicate 2: 3.00e7
- activity call: inactive

HLH4C [DRSC18670]
- calcium entry signal, replicate 1: 4.58e7
- calcium entry signal, replicate 2: 5.26e7
- resting calcium signal, replicate 1: 2.08e7
- resting calcium signal, replicate 2: 2.53e7
- activity call: inactive

HLH4C [DRSC21322]
- calcium entry signal, replicate 1: 2.22e7
- calcium entry signal, replicate 2: 2.93e7
- resting calcium signal, replicate 1: 1.21e7
- resting calcium signal, replicate 2: 1.33e7
- activity call: inactive

2 successive entries from above, quoted:
CG15152 [DRSC02453]
- calcium entry signal, replicate 1: 4.33e7
- calcium entry signal, replicate 2: 3.35e7
- resting calcium signal, replicate 1: 2.00e7
- resting calcium signal, replicate 2: 1.68e7
- activity call: inactive

CG18577 [DRSC15352]
- calcium entry signal, replicate 1: 2.03e7
- calcium entry signal, replicate 2: 2.26e7
- resting calcium signal, replicate 1: 1.17e7
- resting calcium signal, replicate 2: 1.15e7
- activity call: inactive

Additional records:
Pten [DRSC03402]
- calcium entry signal, replicate 1: 3.30e7
- calcium entry signal, replicate 2: 3.52e7
- resting calcium signal, replicate 1: 1.35e7
- resting calcium signal, replicate 2: 1.55e7
- activity call: inactive

Qsox1 [DRSC06878]
- calcium entry signal, replicate 1: 2.20e7
- calcium entry signal, replicate 2: 2.19e7
- resting calcium signal, replicate 1: 1.11e7
- resting calcium signal, replicate 2: 1.19e7
- activity call: inactive

Amy-d + Amy-p [DRSC21242]
- calcium entry signal, replicate 1: 5.24e7
- calcium entry signal, replicate 2: 5.14e7
- resting calcium signal, replicate 1: 2.65e7
- resting calcium signal, replicate 2: 2.40e7
- activity call: inactive

sowah [DRSC09186]
- calcium entry signal, replicate 1: 3.90e7
- calcium entry signal, replicate 2: 4.18e7
- resting calcium signal, replicate 1: 1.93e7
- resting calcium signal, replicate 2: 1.88e7
- activity call: inactive

sowah [DRSC09758]
- calcium entry signal, replicate 1: 5.79e7
- calcium entry signal, replicate 2: 4.92e7
- resting calcium signal, replicate 1: 3.87e7
- resting calcium signal, replicate 2: 1.97e7
- activity call: inactive

RpL36A [DRSC03055]
- calcium entry signal, replicate 1: 2.17e7
- calcium entry signal, replicate 2: 1.87e7
- resting calcium signal, replicate 1: 1.34e7
- resting calcium signal, replicate 2: 1.19e7
- activity call: inactive

CG34266 [DRSC08323]
- calcium entry signal, replicate 1: 2.57e7
- calcium entry signal, replicate 2: 3.54e7
- resting calcium signal, replicate 1: 1.27e7
- resting calcium signal, replicate 2: 1.48e7
- activity call: inactive

Grl65a [DRSC08837]
- calcium entry signal, replicate 1: 2.62e7
- calcium entry signal, replicate 2: 4.26e7
- resting calcium signal, replicate 1: 1.39e7
- resting calcium signal, replicate 2: 1.87e7
- activity call: inactive
